No constants are given. Whether binding was seen depends on the method and setting. In cells and extracts the contact can be indirect. Binding can be weak; no strength is given. Sequences can lack the tags named with a protein.
Tests used:
[1] = target: FLAG-tagged TBSV p33 replication protein (tomato bushy stunt virus (TBSV)); test: co-IP; FLAG-affinity purification of the FLAG-tagged baits from the detergent-solubilised membrane fraction of yeast (for FLAG-GFP the soluble and membrane fractions). His6-Pgk1 was detected by Western blot with anti-His antibody. Also done at time points after shutting down p33 and p92^pol expression and adding cycloheximide.
[2] = target: FLAG-tagged TBSV p92^pol replication protein (tomato bushy stunt virus (TBSV)); test: as above

B1: His6-tagged yeast cytosolic Pgk1 phosphoglycerate kinase (enzyme, UniProt P00560 1-416)
chain: MSLSSKLSVQDLDLKDKRVFIRVDFNVPLDGKKITSNQRIVAALPTIKYVLEHHPRYVVLASHLGRPNGERNEKYSLAPVAKELQSLLGKDVTFLNDCVGPEVEAAVKASAPGSVILLENLRYHIEEEGSRKVDGQKVKASKEDVQKFRHELSSLADVYINDAFGTAHRAHSSMVGFDLPQRAAGFLLEKELKYFGKALENPTRPFLAILGGAKVADKIQLIDNLLDKVDSIIIGGGMAFTFKKVLENTEIGDSIFDKAGAEIVPKLMEKAKAKGVEVVLPVDFIIADAFSADANTKTVTDKEGIPAGWQGLDNGPESRKLFAATVAKAKTIVWNGPPGVFEFEKFAAGTKALLDEVVKSSAAGNTVIIGGGDTATVAKKYGVTDKISHVSTGGGASLELLEGKELPGVAFLSEKK
binding [1]: binds
binding [2]: binds

From PMC5695612
